We go through 1 substance from paper PMC11585589.

The test has as its target T1, Δ14-ARFRP1 Q79L fused to the Gal4 DNA-binding domain (human) (UniProt Q13795).
T1 sequence: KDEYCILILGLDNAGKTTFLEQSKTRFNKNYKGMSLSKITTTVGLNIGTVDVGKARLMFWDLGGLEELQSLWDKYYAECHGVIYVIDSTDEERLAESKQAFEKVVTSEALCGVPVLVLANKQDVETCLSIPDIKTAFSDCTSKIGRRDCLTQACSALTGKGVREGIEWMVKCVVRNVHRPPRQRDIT
Nature of the test: two-hybrid; yeast AH109; ARL variants without the N-terminal helix on Gal4 BD (pGBKT7), ARMH3, PI4KB or T-Ag on Gal4 AD; growth on -His with 3 mM 3AT.

These are yes or no findings as the source states them, for the method shown. Tags and fused reporters may be left off the sequences shown.

In the case of “ARMH3 fused to the Gal4 transcriptional activation domain (pGAD-T7-ARMH3) (human)”, the binding entry is given as “no binding”.
